Measured values as given in patent publication US8487001B2, “Medium-chain length fatty acids, glycerides and analogues as neutrophil survival and activation factors” (ProMetic BioSciences Inc., priority 2001, dated 2013).

Legend:
spleen cells = assay: In vivo chemoprotection: spleen cell count; conditions: mouse
Description: (§1) To examine the immunoprotective effect of MCT or other compounds, mice were pre-treated orally at day-3, -2 and -1 or treated intravenously at day 0 with the test compound. Mice were sacrificed at day +5 by cardiac puncture and cervical dislocation. Then, cell suspensions were prepared from thymus, spleen and bone marrow as follow.
(§2) Tissues were crushed in PBS buffer and contaminating erythrocytes were lysed in ACK buffer (155 mM NH4Cl, 12 mM NaHCO3, 0.1 mM EDTA, pH 7.3) for 5 minutes. Cells were then collected by centrifugation and washed three times in PBS and resuspended in tissue culture medium. Cells were counted on a hemacytometer.
(§3) Chemoprotection studies were performed as described in example 16 except that mice were (post)-treated with MCT, sodium caprylate, sodium caprate or capric acid per o.s. on day 1, 2, 3 and 4.

bone marrow cells = assay: In vivo chemoprotection: bone marrow cell count; conditions: mouse
Description: as §1, §2, §3

## CCCCCCCCCC(=O)OCC(=O)N(C)C [capric acid N,N-dimethyl-acetamide, Capric Acid N,N-dimethylacetamide ester]
Spleen cells
  effect on spleen cell count compared to cyclophosphamide treated mice: No significant effect
Bone marrow cells
  Bone Marrow # Cells (×10^6): 37.4 ± 5.9 ×10^6
  effect on bone marrow cell count compared to cyclophosphamide treated mice: significantly enhances the bone marrow cell count
